For 60 compounds, cell number change and AC50 results are on record in PubChem BioAssay AID2685 (National Center for Advancing Translational Sciences (NCATS), 2010).

This experiment is described as follows: qHTS Assay for Lipid Storage Modulators in Drosophila S3 Cells.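 On cell number change: cells counted by Cell Tracker Red CMTPX staining in the red channel.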 The settings on record: BODIPY lipid droplet fluorescence, 18-24 h; for cell number change: measured here: cell count max response, cells fed with added oleic acid. In outline: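 Drosophila S3 cells loaded with oleic acid (400 uM, as added) and compounds at several concentrations; lipid droplets imaged by 488-nm laser-scanning cytometry, 500–530 nm intensity and object ratio to cell channel. Percent activity normalized to 20 uM Triacsin C.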
Background: In qHTS, concentration-response curves come from the screen itself.

Where [1] appears, read: measured here: cell number channel AC50, cells fed with added oleic acid.
[2] abbreviates: measured here: lipid fluorescence (Fed channel) AC50, cells fed with added oleic acid.

This is one part of the list. The main result of the screen is listed elsewhere. These columns were measured beside it and carry no call. Most of these compounds were active or inconclusive in the main read-out, so they are no random draw. Potencies come from curve fits of mixed quality, noted in brackets.

A word on the AC50: it is the concentration giving half of the maximal activity seen. A lower AC50 goes with activity at low concentration. `COc1ccccc1CNC(=O)c1ccc(OC(C)C)cc1`: the cell number change turned out to be 13.6%. In addition, the AC50 under setting [1] was 0.103 µM [rising, full curve, poor fit].

As for `CCCCc1c(O)nc(SCCC(=O)O)[nH]c1=O`, the cell number change is -8.27%. The AC50 under setting [2] was 18.4 µM [falling, partial curve].

Consider `CCOC(=O)Cc1c(C)c2c(C)[nH]nc2oc1=O`, for which the cell number change amounted to 15.7%.

For `Cc1ccccc1NC(=O)Cc1nc(COC(=O)c2cccc(C)c2O)cs1`, the cell number change came out at 1.52%. Under setting [2], the AC50 is 29.1 µM [falling, single point].

Take `CCOC(=O)c1c(C)n(CC(COC(C)=O)OC(C)=O)c2ccc(OC(C)=O)cc12` (centres undefined): the cell number change was 46.8%. In addition, the AC50 under setting [1] was 0.259 µM [rising, full curve]. Besides, under setting [2], the AC50 is 0.82 µM [rising, partial curve].

On to `CCCCc1cc(=O)oc2c(C)c(OCC(=O)NCc3ccccn3)ccc12`, for which the cell number change was -8.06%. Further, the AC50 under setting [2] was 0.58 µM [rising, single point].

Consider `O=C(Nc1ccc(Br)cc1)NC1CCCCCCC1`, for which the cell number change was -56.9%. Also, the AC50 under setting [1] is 29.1 µM [falling, single point]. The AC50 under setting [2] is 29.1 µM [falling, single point].

Consider `OCCCNC(=S)Nc1ccc2nccnc2c1`, for which the cell number change was determined as 4.7%. Further, under setting [2], the half-maximal activity concentration (AC50) was 6.51 µM [falling, single point].

Take `Cc1cc(C)c2nc(N3CCC(C(=O)NCCN4CCOCC4)CC3)sc2c1`: the cell number change was 2.69%. Besides, the concentration at half-maximal activity (AC50) under setting [2] was 6.51 µM [rising, single point].

Regarding `N#CC1=C(N)Oc2c(oc(CO)cc2=O)C1c1cccs1` (centres undefined), the cell number change was -0.068%. Further, the AC50 under setting [2] was 0.731 µM [falling, full curve].

Consider `CCOC(=O)c1cc2c(s1)-c1c(C)cccc1OC2`, for which the cell number change is 4.92%. Further, the AC50 under setting [2] was 32.6 µM [rising, single point].

Regarding `COc1ccccc1NC(=O)COC(=O)C1CC2C=CC1C2` (centres undefined), the AC50 under setting [1] was 1.03 µM [rising, partial curve].

Take `CC(=O)N1CCN(C(=O)CCc2nc3sc4c(c3c(=O)[nH]2)CCCC4)CC1`: the cell number change was -12.8%. Also, under setting [1], the concentration at half-maximal activity (AC50) is 6.51 µM [falling, single point].

In the case of `COc1ccc(CCNC(=O)c2ccc3c(c2)NC(=O)CS3)cc1OC`, the cell number change worked out at 7.25%. Besides, the AC50 under setting [2] is 20.6 µM [rising, single point].

`CN(c1ccccc1)S(=O)(=O)c1ccc(NC(=O)c2nc(S(C)(=O)=O)ncc2Cl)cc1`: the cell number change turned out to be 68.1%. Further, the AC50 under setting [1] is 13 µM [rising, partial curve].

Take `CCN1CCN(CCNC(=O)c2ccc3c(c2)N(Cc2ccc(F)cc2)C(=O)c2ccccc2S3=O)CC1` (centres undefined): the cell number change is -10.8%. For the same compound, the AC50 under setting [2] is 29.1 µM [rising, single point].

For `N#Cc1cnn(-c2ncnc3sc4c(c23)CCCC4)c1N`, the cell number change worked out at 63.5%. Besides, the half-maximal activity concentration (AC50) under setting [1] was 29.1 µM [rising, single point].

As to `CC(=O)Nc1ccc(N2N=C(C)C(N=Nc3ccccc3)C2=O)cc1` (centres undefined), the cell number change amounted to 3.67%. Moreover, under setting [2], the AC50 was 0.731 µM [rising, single point].

`COc1ccc2[nH]c(=O)c(C(c3nnnn3CC3CCCO3)N3CCc4ccccc4C3)cc2c1` (centres undefined): the cell number change is 34.8%. Also, under setting [1], the AC50 is 4.61 µM [rising, full curve, poor fit].

For the compound `NC(=O)NOCc1ccc(Cl)cc1Cl`, the cell number change worked out at 0.583%. Further, the AC50 under setting [1] was 0.103 µM [rising, full curve, poor fit]. The half-maximal activity concentration (AC50) under setting [2] was 0.116 µM [rising, full curve, poor fit].

In the case of `CN1/C(=C\C(=O)COC(=O)CNC(=O)c2ccccc2F)C(C)(C)c2ccccc21`, the cell number change amounted to 6.4%. The half-maximal activity concentration (AC50) under setting [2] is 2.91 µM [rising, single point].

With `CC1(C)CC(=O)C=C(NC2CC(C)(C)NC(C)(C)C2)C1`, the cell number change is -17.6%. In addition, under setting [2], the AC50 is 0.259 µM [falling, full curve, poor fit].

Take `O=C(c1ccco1)c1nnn(Cc2ccccc2)c1-c1ccccc1`: the cell number change is -11.5%. Moreover, the AC50 under setting [2] was 14.6 µM [rising, partial curve].

As to `CC(=O)Nc1ccc(S(=O)(=O)N2CCN(C(C)CCc3ccccc3)CC2)cc1` (centres undefined), the cell number change is 49.5%. In addition, the AC50 under setting [1] is 29.1 µM [rising, single point].

Consider `O=S1(=O)[C@H]2C[C@@H]3C=C[C@@]2(CN1Cc1cccc(Cl)c1)O3`, for which the cell number change is -0.299%. Under setting [2], the concentration at half-maximal activity (AC50) was 29.1 µM [falling, single point].

Turning to `O=[N+]([O-])c1cc(S(=O)(=O)Nc2ccccc2)ccc1N1CCN(c2ccccc2)CC1`, the cell number change was -35.8%. Further, under setting [1], the AC50 was 29.1 µM [falling, single point]. The AC50 under setting [2] was 18.4 µM [falling, single point].

Consider `Cc1ccccc1NC(=S)NC(NC(=O)c1ccccc1C)C(Cl)(Cl)Cl` (centres undefined), for which the cell number change amounted to 27.2%. The AC50 under setting [1] is 0.00517 µM [rising, full curve, poor fit]. Also, the AC50 under setting [2] was 6.51 µM [rising, single point].

On to `CC1CCN(S(=O)(=O)Cc2ccccc2Cl)CC1`, for which the cell number change is -4.39%. The AC50 under setting [1] was 6.51 µM [falling, single point].

Regarding `O=C(CSc1nc(C2CCCCC2)nc2ccccc12)NCc1ccco1`, the cell number change is -16.8%. In addition, the AC50 under setting [2] was 20.6 µM [falling, single point].

Regarding `CCOc1ccccc1NC(=O)c1cccc(S(=O)(=O)N(Cc2ccccc2)c2ccccc2OC)c1`, the cell number change was determined as 0.103%. Further, the concentration at half-maximal activity (AC50) under setting [2] is 0.231 µM [rising, full curve, poor fit].

Turning to `Cc1nn(Cc2ccccc2)c(Cl)c1/C=C/C(=O)OCC(=O)NC(C)C(C)C` (centres undefined), the cell number change worked out at 74.5%. Besides, the AC50 under setting [1] is 29.1 µM [rising, single point].

As for `COc1ccc(-c2noc(CNC(=O)C(C)Oc3ccccc3)n2)cc1` (centres undefined), the cell number change turned out to be 24.3%. In addition, under setting [2], the AC50 is 29.1 µM [rising, single point].

In the case of `O=C(CSc1nc2ccccc2c(=O)n1Cc1ccco1)N1CCN(c2ccccc2)CC1`, the cell number change was 4.25%. For the same compound, under setting [2], the AC50 is 0.0164 µM [rising, full curve, poor fit].

Regarding `O=C1Nc2ccccc2Oc2cc(Oc3ccccc3)ccc21`, the cell number change is -0.906%. The half-maximal activity concentration (AC50) under setting [1] was 0.00517 µM [falling, full curve, poor fit].

Consider `CN=c1scc(-c2ccc([N+](=O)[O-])cc2)n1/N=C/c1ccco1`, for which the cell number change is -21.4%. The AC50 under setting [1] was 4.11 µM [falling, single point]. Besides, the AC50 under setting [2] was 11.6 µM [falling, partial curve].

`CCOC(=O)CC(=O)NC(C)(C)CCCCC(C)(C)NC(=O)CC(=O)OCC`: the cell number change was determined as 7.24%. Further, under setting [2], the AC50 is 0.116 µM [falling, full curve, poor fit].

On to `CCn1cc(C(=O)N[C@H](C(=O)NC(C)(C)CO)C(C)C)c(=O)c2cc3c(cc21)OCO3`, for which the cell number change turned out to be 24.9%.

For the compound `O=C(NNC(=O)C12CC3CC(CC(Cl)(C3)C1)C2)c1csc(N2CCOCC2)n1`, the cell number change was -8.04%. For the same compound, under setting [2], the AC50 is 3.66 µM [rising, single point].

Consider `Cc1ccc(Nc2nc(NCc3ccco3)c3ccccc3n2)cc1`, for which the cell number change is -82.3%. Further, the AC50 under setting [1] was 1.84 µM [falling, partial curve]. Further, the AC50 under setting [2] is 1.84 µM [falling, partial curve].

Turning to `Cc1ccccc1OCC(O)Cn1c2ccccc2c2ccccc21` (centres undefined), the cell number change was -25.5%.

Take `CCOC(=O)C1(c2csc(N)n2)COC(=O)C1` (centres undefined): the cell number change was -38.6%. For the same compound, under setting [1], the AC50 was 29.1 µM [falling, single point]. Under setting [2], the AC50 is 6.51 µM [falling, single point].

For `CN1CCN(C(=S)c2cn(Cc3ccc(Br)cc3)c3ccccc23)CC1`, under setting [1], the AC50 was 0.146 µM [rising, full curve, poor fit].

For the compound `COc1ccc(S(=O)(=O)NCC(=O)N(CC(=O)NCc2ccccc2)Cc2ccco2)cc1`, the cell number change was -14.3%. The AC50 under setting [2] was 6.51 µM [rising, partial curve].

Regarding `CSc1ccc(N2C(=O)NC3(CCCCC3)C2=O)cc1`, the cell number change is 88.4%. Moreover, the half-maximal activity concentration (AC50) under setting [1] was 29.1 µM [rising, single point].

With `Cc1ccn2c(CNC(C)c3cn(C)nc3C)c(C(=O)N3CCCCCC3)nc2c1` (centres undefined), the cell number change was -10.8%. Further, under setting [2], the AC50 is 2.31 µM [falling, partial curve, poor fit].

Regarding `CCCC(=O)NCCc1nc2cc([N+](=O)[O-])ccc2n1C`, the cell number change is 2.77%.

On to `O=[N+]([O-])c1ccc(/C=N/n2c(COc3ccccc3)n[nH]c2=S)cc1`, for which the cell number change was -74.3%.

As to `O=C(O)c1ccccc1NS(=O)(=O)c1cccc(N=Nc2c(O)[nH]c(=S)[nH]c2=O)c1`, the cell number change was -23%.

Take `CCn1cc(/C=C(\NC(=O)c2ccccc2F)C(=O)NCCN2CCOCC2)c2ccccc21`: under setting [2], the AC50 was 6.51 µM [rising, single point].

For the compound `COc1ccc(C(C#N)CCC2OCCO2)cc1OC` (centres undefined), the cell number change was found to be 11.6%. The AC50 under setting [2] was 0.082 µM [falling, single point].

`CN(Cc1cccs1)C(=O)Cc1csc(-c2ccccc2)n1`: the half-maximal activity concentration (AC50) under setting [2] is 6.51 µM [rising, single point].

As to `O=C(NCCCN=C1NS(=O)(=O)c2ccccc21)c1ccc(Cl)cc1`, the cell number change was 3.48%. Also, the AC50 under setting [2] is 6.51 µM [falling, single point].

Consider `CCc1sc(C(=O)N(CCCOC)c2c(N)n(CC(C)C)c(=O)[nH]c2=O)cc1C`, for which the cell number change stood at 0.427%. Moreover, under setting [2], the AC50 was 1.84 µM [falling, partial curve].

For the compound `CC(CC(=O)N1CCc2ccccc21)S(=O)(=O)c1ccc2c(c1)NC(=O)CO2` (centres undefined), the cell number change was -14.3%. The AC50 under setting [1] was 3.66 µM [rising, single point]. In addition, under setting [2], the AC50 was 6.51 µM [rising, single point].

For `O=C(Cc1ccc(Cl)cc1)N/N=C/c1c(Cl)cccc1Cl`, the cell number change came out at 30.1%. Further, under setting [1], the AC50 was 5.8 µM [rising, full curve, poor fit].

As for `CCC(CNc1cc(OC)cc2cccnc12)NC1CCCCC1` (centres undefined), the cell number change turned out to be 8.6%. For the same compound, under setting [2], the AC50 is 16.4 µM [falling, single point].

Consider `CC1Cc2ccccc2N1CC(=O)Nc1cccc(S(N)(=O)=O)c1` (centres undefined), for which the cell number change came to 5.13%.

In the case of `Cc1ccc(S(=O)(=O)NCCC(=O)N(C)Cc2cccs2)cc1`, the cell number change is 15%. Besides, the concentration at half-maximal activity (AC50) under setting [2] was 1.3 µM [falling, full curve, poor fit].

In the case of `CC1(C)Cc2c(sc(NC(=O)c3ccc(C(=O)c4ccccc4)cc3)c2C(N)=O)C(C)(C)N1`, the cell number change is -18.8%. In addition, the concentration at half-maximal activity (AC50) under setting [2] was 29.1 µM [falling, single point].

On to `Cc1ccc(C(=O)N2CCN(S(=O)(=O)c3ccc(C)c([N+](=O)[O-])c3)C2)cc1`, for which the cell number change turned out to be 25.3%. In addition, the AC50 under setting [1] is 0.231 µM [rising, full curve, poor fit]. For the same compound, the AC50 under setting [2] is 0.103 µM [rising, full curve].
